According to the supplement of paper PMC12823440, “Inhibitors supercharge kinase turnover through native proteolytic circuits” (Nature, 2025):
Counter-ions that a name gives are not always drawn. The list shows a part of the results. Hit calls seldom repeat between salt and free forms of one compound.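 In K562 cells expressing nanoluciferase-fused kinases, luminescence was recorded at 4 h intervals between 2 and 18 h, normalized as percent of control with DMSO at 100% and a positive control at 0%. A significant (2 sigma) signal drop marks a time point as decreased. The authors' rule for a hit is not shown and takes in more than the number of time points.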

Amino acid sequences for entries named in this document (tags omitted).
UniProt P21860, whole entry: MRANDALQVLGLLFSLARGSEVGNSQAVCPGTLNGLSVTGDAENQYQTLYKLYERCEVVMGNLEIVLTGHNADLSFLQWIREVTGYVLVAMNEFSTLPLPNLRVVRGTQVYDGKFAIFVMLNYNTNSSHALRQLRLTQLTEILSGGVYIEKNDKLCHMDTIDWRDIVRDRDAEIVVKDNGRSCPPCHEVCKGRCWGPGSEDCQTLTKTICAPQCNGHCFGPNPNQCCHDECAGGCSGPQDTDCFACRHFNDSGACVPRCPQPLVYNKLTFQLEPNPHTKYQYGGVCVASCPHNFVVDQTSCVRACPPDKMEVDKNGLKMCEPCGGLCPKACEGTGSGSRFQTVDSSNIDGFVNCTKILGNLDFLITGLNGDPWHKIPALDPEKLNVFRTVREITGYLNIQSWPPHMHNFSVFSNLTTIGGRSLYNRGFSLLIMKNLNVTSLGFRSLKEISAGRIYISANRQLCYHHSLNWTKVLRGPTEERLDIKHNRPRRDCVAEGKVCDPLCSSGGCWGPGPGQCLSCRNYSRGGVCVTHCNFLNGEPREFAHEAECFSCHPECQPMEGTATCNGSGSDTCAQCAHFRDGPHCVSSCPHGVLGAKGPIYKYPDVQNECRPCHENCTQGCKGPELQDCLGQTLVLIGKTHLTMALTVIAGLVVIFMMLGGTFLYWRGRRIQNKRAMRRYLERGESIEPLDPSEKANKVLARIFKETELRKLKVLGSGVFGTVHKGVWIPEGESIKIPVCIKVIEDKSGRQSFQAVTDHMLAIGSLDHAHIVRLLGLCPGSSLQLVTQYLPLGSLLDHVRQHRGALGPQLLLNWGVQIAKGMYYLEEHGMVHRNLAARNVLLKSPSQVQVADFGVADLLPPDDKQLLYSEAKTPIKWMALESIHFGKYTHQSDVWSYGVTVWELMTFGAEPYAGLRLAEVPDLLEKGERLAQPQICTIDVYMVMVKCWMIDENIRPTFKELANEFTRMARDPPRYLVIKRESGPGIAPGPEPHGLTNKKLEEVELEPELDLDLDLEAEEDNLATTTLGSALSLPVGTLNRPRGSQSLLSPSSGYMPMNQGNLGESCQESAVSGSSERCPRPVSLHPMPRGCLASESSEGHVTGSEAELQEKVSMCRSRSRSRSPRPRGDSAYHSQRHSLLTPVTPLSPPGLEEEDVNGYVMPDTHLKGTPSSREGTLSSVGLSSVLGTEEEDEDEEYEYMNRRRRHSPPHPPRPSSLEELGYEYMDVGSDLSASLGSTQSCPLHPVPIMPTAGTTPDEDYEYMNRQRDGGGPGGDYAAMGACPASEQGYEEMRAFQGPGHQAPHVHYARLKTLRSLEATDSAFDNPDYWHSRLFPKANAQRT
UniProt Q15303, whole entry R711C: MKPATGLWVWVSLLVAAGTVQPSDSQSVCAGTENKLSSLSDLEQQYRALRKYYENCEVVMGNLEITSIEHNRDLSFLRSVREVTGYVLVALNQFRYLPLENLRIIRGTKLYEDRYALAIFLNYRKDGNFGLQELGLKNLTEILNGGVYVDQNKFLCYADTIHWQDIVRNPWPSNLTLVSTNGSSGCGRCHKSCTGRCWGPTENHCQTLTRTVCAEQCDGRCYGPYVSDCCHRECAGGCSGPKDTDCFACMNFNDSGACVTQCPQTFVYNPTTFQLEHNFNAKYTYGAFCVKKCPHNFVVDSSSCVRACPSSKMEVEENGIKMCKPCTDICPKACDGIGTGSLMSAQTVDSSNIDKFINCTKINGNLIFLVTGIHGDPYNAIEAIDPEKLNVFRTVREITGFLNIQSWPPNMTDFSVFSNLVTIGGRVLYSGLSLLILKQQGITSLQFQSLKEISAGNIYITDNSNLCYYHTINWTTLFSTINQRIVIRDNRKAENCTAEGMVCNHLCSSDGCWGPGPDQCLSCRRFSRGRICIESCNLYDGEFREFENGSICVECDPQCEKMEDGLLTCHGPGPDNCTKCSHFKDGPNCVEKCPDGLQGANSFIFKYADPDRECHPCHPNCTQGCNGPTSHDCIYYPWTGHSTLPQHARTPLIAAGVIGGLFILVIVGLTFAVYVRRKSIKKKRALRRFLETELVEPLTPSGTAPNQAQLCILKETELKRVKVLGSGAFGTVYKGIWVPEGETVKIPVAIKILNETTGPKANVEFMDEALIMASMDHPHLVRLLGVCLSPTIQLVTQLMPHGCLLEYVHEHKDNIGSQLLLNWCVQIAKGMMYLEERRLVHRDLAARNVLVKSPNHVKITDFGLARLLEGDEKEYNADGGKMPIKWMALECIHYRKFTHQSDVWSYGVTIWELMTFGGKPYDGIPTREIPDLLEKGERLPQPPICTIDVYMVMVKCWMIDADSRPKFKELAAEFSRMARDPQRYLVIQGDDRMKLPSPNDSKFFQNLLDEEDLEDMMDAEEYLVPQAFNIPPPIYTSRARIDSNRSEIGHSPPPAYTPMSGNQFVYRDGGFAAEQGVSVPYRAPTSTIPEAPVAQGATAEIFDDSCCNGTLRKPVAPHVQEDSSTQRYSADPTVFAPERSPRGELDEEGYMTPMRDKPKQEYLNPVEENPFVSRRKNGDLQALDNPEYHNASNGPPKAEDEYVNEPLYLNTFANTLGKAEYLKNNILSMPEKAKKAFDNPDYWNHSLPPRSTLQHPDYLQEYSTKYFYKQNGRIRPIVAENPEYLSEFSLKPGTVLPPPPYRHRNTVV

These molecules were tested against ERBB3 (UniProt P21860) (assay: kinase-Nluc reporter destabilization hit call (1 = scored as downregulated) (binary); higher = compound decreases kinase abundance). Conditions: K562; 2-18 h.

kinase-Nluc reporter destabilization hit call, inactive:
CNC(=O)c1cc(Oc2ccc(NC(=O)Nc3cc(C(C)(C)C)nn3-c3ccc4ncccc4c3)c(F)c2)ccn1 [Rebastinib] (2.5 µM) 0
CCCn1cnc2c(NCc3ccccc3)nc(NC(CC)CO)nc21 (centres undefined) [Ca2+ channel agonist 1] (2.5 µM) 0
Brc1c(Br)c(Br)c2n[nH]nc2c1Br (10 µM) 0
C=CC(=O)Nc1cccc(Nc2nc(Nc3ccc(OCCOC)cc3)ncc2F)c1 [Spebrutinib] (10 µM) 0
CC(C)=CC/C=C(\C)[C@H]1CC[C@]2(C)[C@@H]1[C@H](O)C[C@@H]1[C@@]3(C)CC[C@H](O[C@@H]4O[C@H](CO)[C@@H](O)[C@H](O)[C@H]4O[C@@H]4O[C@H](CO)[C@@H](O)[C@H](O)[C@H]4O)C(C)(C)[C@@H]3CC[C@]12C [Ginsenoside Rg5] (10 µM) 0
Cc1ncc(-c2ccnc(Nc3ccc(S(C)(=O)=O)cc3)n2)n1C(C)C (2.5 µM) 0
CN(C)CCOc1ccc(-c2nc(-c3ccncc3)c(-c3ccc4c(c3)CC/C4=N\O)[nH]2)cc1 (10 µM) 0
CCN(CCCOc1ccc2c(Nc3cc(CC(=O)Nc4cccc(F)c4)[nH]n3)ncnc2c1)CCOP(=O)(O)O [Barasertib] (10 µM) 0
C=CC(=O)N[C@H]1COC[C@H]1Nc1ncc2cc(-c3c(Cl)c(OC)cc(OC)c3Cl)c(=O)n(C)c2n1 (10 µM) 0

Each molecule was assayed against ERBB4_R711C (clone: ERBB4_mut) (UniProt Q15303) in the same assay as above. Conditions: K562; 2-18 h.

kinase-Nluc reporter destabilization hit call, inactive:
CC#CC(=O)N[C@H]1CCCN(c2c(F)cc(C(N)=O)c3[nH]c(C)c(C)c23)C1 [Branebrutinib] (10 µM) 0
O=C1NC(=NCc2cccs2)S/C1=C\c1ccc2ncccc2c1 (10 µM) 0
Cn1c(=O)n(-c2ccc(C(C)(C)C#N)cc2)c2c3cc(-c4cnc5ccccc5c4)ccc3ncc21 [Dactolisib (Tosylate)] (10 µM) 0
COC(=O)c1ccc2c(C(=Nc3ccc(N(C)C(=O)CN4CCN(C)CC4)cc3)c3ccccc3)c(O)[nH]c2c1 [Nintedanib] (2.5 µM) 0
COc1cc2ncnc(Nc3ccc(O)cc3)c2cc1OC (10 µM) 0
CN1CCN(S(=O)(=O)c2ccc(-c3cnc(N)c(C(=O)Nc4cccnc4)n3)cc2)CC1 (10 µM) 0
CN(C)C[C@@H]1CCn2cc(c3ccccc32)C2=C(C(=O)NC2=O)c2cn(c3ccccc23)CCO1 [Ruboxistaurin (hydrochloride)] (10 µM) 0
COc1ccc(Oc2cc(NCCC(F)(F)F)c3ncc(-c4ccc(C(=O)NC5CC5)c(C)c4)n3n2)c(F)c1F (2.5 µM) 0
CCCCNc1ncc(-c2ccc(CN3CCOCC3)cn2)c(NC2CCC(O)CC2)n1 (centres undefined) (10 µM) 0
O=C(Nc1cc(C(F)(F)F)ccc1N1CCN(Cc2ccccn2)CC1)c1ccc(-c2ccncc2)o1 (10 µM) 0
CC(C)(/C=C(\C#N)C(=O)N1CCC[C@@H](n2nc(-c3ccc(Oc4ccccc4)cc3F)c3c(N)ncnc32)C1)N1CCN(C2COC2)CC1 (2.5 µM) 0
CNC(=O)c1cccc2cc(Oc3ccnc4cc(OCC5(N)CC5)c(OC)cc34)ccc12 [Lucitanib] (10 µM) 0
COc1cc(F)cc([C@@H](CO)NC(=O)[C@@H](C)N2Cc3ccc(-c4nc(NC5CCOCC5)ncc4Cl)cc3C2=O)c1 [ERK1/2 inhibitor 2] (10 µM) 0
O=c1cc(-c2ccccc2)oc2c(O)c(O)ccc12 [7,8-Dihydroxyflavone] (10 µM) 0
C=CC(=O)N1CC[C@H](n2nc(C#Cc3cc(OC)cc(OC)c3)c3c(N)ncnc32)C1 [Futibatinib] (10 µM) 0
O=C1Nc2ccccc2/C1=C/c1ccc(F)cc1 (10 µM) 0
CN(C)Cc1ccc(-c2cnn3c(-c4cccc(NC(=O)c5cccc(C(F)(F)F)c5)c4)ccnc23)cc1 (2.5 µM) 0
Cc1c[nH]c(/C=C2\C(=O)Nc3ccccc32)c1CCC(=O)O (10 µM) 0
CC(C)c1ccc2oc3nc(N)c(C(=O)O)cc3c(=O)c2c1 [Amlexanox] (10 µM) 0
NS(=O)(=O)c1ccc(Nc2nc(OCC3CCCCC3)c3[nH]cnc3n2)cc1 (10 µM) 0

Reprinted from the listing (7 entries):
kinase-Nluc reporter destabilization hit call, inactive:
COc1cc(F)cc([C@@H](CO)NC(=O)[C@@H](C)N2Cc3ccc(-c4nc(NC5CCOCC5)ncc4Cl)cc3C2=O)c1 [ERK1/2 inhibitor 2] (10 µM) 0
O=c1cc(-c2ccccc2)oc2c(O)c(O)ccc12 [7,8-Dihydroxyflavone] (10 µM) 0
C=CC(=O)N1CC[C@H](n2nc(C#Cc3cc(OC)cc(OC)c3)c3c(N)ncnc32)C1 [Futibatinib] (10 µM) 0
O=C1Nc2ccccc2/C1=C/c1ccc(F)cc1 (10 µM) 0
CN(C)Cc1ccc(-c2cnn3c(-c4cccc(NC(=O)c5cccc(C(F)(F)F)c5)c4)ccnc23)cc1 (2.5 µM) 0
Cc1c[nH]c(/C=C2\C(=O)Nc3ccccc32)c1CCC(=O)O (10 µM) 0
CC(C)c1ccc2oc3nc(N)c(C(=O)O)cc3c(=O)c2c1 [Amlexanox] (10 µM) 0
